Binding data for 2 substances are collected here from PMC12068309.

Amino acid sequences for entries named in this document (tags omitted). A change or cut given only in a name is not applied to a line headed by its entry.
UniProt Q70Z35: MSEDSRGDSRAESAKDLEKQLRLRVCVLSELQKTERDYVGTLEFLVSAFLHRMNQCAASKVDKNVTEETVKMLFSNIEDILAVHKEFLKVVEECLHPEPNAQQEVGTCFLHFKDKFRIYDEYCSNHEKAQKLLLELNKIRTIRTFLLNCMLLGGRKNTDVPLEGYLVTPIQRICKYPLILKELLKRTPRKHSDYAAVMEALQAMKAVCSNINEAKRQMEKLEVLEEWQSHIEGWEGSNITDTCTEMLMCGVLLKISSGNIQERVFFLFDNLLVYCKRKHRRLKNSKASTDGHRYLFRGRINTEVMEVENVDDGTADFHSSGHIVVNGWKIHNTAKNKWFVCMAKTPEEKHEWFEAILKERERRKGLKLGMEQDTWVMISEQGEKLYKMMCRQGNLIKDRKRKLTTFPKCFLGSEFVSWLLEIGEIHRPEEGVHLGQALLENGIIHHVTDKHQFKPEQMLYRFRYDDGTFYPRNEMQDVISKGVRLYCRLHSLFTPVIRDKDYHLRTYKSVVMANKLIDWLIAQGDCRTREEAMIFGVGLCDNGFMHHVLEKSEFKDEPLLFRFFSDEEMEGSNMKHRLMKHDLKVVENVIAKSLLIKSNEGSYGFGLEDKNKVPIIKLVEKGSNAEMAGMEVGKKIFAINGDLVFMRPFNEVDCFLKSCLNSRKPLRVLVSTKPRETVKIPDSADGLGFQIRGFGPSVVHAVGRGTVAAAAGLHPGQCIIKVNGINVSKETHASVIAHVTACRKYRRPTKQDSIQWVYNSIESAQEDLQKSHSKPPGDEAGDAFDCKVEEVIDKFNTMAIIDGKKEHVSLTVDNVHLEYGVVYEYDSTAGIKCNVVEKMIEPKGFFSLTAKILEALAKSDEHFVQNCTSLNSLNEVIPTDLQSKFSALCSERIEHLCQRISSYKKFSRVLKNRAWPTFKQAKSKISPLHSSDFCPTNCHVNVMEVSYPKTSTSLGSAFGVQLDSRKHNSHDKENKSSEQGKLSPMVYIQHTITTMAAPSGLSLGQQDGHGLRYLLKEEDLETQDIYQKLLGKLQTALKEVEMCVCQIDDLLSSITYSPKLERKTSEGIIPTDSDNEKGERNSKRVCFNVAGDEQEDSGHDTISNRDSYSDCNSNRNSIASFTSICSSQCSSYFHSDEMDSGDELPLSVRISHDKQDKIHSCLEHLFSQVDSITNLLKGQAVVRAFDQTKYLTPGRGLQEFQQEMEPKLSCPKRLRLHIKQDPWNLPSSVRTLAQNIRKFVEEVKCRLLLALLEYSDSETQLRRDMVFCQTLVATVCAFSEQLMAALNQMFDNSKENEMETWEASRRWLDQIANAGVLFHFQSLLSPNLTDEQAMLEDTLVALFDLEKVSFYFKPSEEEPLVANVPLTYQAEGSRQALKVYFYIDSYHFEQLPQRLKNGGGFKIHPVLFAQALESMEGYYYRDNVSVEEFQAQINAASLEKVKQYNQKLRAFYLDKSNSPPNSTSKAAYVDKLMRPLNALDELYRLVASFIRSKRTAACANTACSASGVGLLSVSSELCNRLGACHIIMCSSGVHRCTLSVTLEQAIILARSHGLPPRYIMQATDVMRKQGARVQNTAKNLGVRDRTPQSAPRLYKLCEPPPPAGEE
UniProt O43865: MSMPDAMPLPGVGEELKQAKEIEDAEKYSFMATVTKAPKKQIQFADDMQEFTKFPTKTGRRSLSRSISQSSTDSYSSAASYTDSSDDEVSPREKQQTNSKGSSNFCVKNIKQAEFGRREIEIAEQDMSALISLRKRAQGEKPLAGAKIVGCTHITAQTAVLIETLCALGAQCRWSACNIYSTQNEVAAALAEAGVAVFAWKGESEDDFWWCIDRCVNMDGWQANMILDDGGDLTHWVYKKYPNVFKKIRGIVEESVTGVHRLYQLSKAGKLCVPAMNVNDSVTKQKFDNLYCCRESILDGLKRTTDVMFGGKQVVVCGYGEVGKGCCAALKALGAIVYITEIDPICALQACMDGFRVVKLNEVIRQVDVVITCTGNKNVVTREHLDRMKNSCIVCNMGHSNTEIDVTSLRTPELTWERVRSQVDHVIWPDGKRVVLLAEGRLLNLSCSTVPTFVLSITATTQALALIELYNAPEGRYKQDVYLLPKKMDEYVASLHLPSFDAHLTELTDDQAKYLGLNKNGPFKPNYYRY

The target of this experiment is Flag-PREX2 (UniProt Q70Z35). The experiment is described as follows: co-IP; exogenous proteins in HEK293T; IP with Flag antibody, detected by HA antibody.

Results are given in words; binding and its absence hold for the method and conditions named. Binding seen in cells or lysates may run through a third protein. Some entries that bind do so weakly or less than the wild type.

For “HA-AHCYL1 truncation 1-104 (from UniProt O43865 1-104) (domain or fragment)”, the binding entry is on record as “no binding”. As to “HA-AHCYL1 truncation 104-530 (from UniProt O43865 104-530) (domain or fragment)”, the binding result was “binds”.
